This note sets out measurements from article PMC7892623.

Chains of the proteins cited; added tags and fusions are not shown.
UniProt Q15910: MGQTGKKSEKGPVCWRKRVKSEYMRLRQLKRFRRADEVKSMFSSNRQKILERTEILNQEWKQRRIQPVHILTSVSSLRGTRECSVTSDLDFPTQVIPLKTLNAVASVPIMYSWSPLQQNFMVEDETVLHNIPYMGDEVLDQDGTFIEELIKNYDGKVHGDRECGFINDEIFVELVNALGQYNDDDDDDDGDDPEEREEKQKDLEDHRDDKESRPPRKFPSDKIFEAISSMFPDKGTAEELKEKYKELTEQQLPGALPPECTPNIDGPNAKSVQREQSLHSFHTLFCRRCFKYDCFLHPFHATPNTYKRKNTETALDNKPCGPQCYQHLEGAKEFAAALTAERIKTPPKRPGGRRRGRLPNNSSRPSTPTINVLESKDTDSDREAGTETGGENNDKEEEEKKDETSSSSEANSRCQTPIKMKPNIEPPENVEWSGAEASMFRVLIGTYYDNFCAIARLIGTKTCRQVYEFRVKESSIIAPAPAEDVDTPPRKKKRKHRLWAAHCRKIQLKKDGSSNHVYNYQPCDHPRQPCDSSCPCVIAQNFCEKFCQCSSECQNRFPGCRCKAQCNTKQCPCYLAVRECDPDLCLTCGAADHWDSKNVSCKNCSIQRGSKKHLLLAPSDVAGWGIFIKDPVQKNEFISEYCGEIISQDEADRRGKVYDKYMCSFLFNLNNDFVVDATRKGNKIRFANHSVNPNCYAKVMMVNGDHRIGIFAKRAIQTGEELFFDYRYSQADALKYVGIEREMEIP

These are yes or no findings as the source states them, for the method shown. In cells and extracts the contact can be indirect. Some binding calls cover weakened binding; strength is not graded here.

For this assay, the target named is EZH2 (human (endogenous in HepG2 and PLC8024)) (UniProt Q15910). Kind of assay: co-IP; precipitation with a specific antibody for DDX11 or for EZH2 from HepG2 and PLC8024 cells, detection by western blot; no further conditions given.

B1: DDX11 (protein, UniProt Q96FC9 1-970)
chain: MANETQKVGAIHFPFPFTPYSIQEDFMAELYRVLEAGKIGIFESPTGTGKSLSLICGALSWLRDFEQKKREEEARLLETGTGPLHDEKDESLCLSSSCEGAAGTPRPAGEPAWVTQFVQKKEERDLVDRLKAEQARRKQREERLQQLQHRVQLKYAAKRLRQEEEERENLLRLSREMLETGPEAERLEQLESGEEELVLAEYESDEEKKVASRVDEDEDDLEEEHITKIYYCSRTHSQLAQFVHEVKKSPFGKDVRLVSLGSRQNLCVNEDVKSLGSVQLINDRCVDMQRSRHEKKKGAEEEKPKRRRQEKQAACPFYNHEQMGLLRDEALAEVKDMEQLLALGKEARACPYYGSRLAIPAAQLVVLPYQMLLHAATRQAAGIRLQDQVVIIDEAHNLIDTITGMHSVEVSGSQLCQAHSQLLQYVERYGKRLKAKNLMYLKQILYLLEKFVAVLGGNIKQNPNTQSLSQTGTELKTINDFLFQSQIDNINLFKVQRYCEKSMISRKLFGFTERYGAVFSSREQPKLAGFQQFLQSLQPRTTEALAAPADESQASTLRPASPLMHIQGFLAALTTANQDGRVILSRQGSLSQSTLKFLLLNPAVHFAQVVKECRAVVIAGGTMQPVSDFRQQLLACAGVEAERVVEFSCGHVIPPDNILPLVICSGISNQPLEFTFQKRELPQMMDEVGRILCNLCGVVPGGVVCFFPSYEYLRQVHAHWEKGGLLGRLAARKKIFQEPKSAHQVEQVLLAYSRCIQACGQERGQVTGALLLSVVGGKMSEGINFSDNLGRCVVMVGMPFPNIRSAELQEKMAYLDQTLSPRPGTPREGSGGEPVHEGRQPVHRQGHQAPEGFCQRSAPGPAICPAPCPGQAAGLDPSPCGGQSYLWPRHCCCAEVSPGEVGLFLMGNHTTAWRRALPLSCPLETVFVVGVVCGDPVTKVKPRRRVWSPECCQDPGTGVSSRRRKWGNPE
Take B1: the binding entry is “binds”.
